According to article PMC9645627:
These are yes or no findings as the source states them, for the method shown. For some assays here: In cells and extracts the contact can be indirect. Some binding calls cover weakened binding; strength is not graded here. For some assays here: Tags and fused reporters may be left off the sequences shown.

The chains behind the UniProt entries cited, without tags or fusion partners. Where a name states a change or a piece, a line headed by the entry shows the natural chain unless it says otherwise.
UniProt P25491: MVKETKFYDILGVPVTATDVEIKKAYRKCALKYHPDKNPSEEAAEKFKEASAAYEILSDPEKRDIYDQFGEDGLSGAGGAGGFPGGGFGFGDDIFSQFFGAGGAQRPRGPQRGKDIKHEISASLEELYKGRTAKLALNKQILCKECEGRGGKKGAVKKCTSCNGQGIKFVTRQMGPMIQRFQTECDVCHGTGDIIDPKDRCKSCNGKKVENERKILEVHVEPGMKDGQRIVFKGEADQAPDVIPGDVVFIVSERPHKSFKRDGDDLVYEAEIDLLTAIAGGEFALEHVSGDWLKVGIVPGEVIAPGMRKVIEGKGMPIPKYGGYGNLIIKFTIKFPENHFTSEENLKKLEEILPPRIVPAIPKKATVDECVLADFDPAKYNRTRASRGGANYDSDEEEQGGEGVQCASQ
UniProt P10591: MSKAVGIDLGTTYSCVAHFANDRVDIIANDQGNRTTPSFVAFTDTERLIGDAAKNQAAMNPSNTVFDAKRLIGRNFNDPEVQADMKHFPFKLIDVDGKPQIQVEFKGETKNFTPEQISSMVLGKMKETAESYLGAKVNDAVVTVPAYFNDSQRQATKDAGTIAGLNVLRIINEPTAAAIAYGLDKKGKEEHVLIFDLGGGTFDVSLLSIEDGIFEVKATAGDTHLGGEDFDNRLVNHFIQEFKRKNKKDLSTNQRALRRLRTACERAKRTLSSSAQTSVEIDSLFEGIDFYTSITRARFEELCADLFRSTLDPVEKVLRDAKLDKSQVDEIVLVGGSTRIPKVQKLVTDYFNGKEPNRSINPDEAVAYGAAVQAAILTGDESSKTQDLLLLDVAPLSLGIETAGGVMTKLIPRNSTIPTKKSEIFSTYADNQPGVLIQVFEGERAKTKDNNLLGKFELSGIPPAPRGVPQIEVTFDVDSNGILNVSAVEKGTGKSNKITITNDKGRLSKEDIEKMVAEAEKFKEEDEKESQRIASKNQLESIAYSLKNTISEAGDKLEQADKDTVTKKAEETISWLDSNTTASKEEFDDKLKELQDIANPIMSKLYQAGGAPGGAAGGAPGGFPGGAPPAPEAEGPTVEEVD
UniProt P09435: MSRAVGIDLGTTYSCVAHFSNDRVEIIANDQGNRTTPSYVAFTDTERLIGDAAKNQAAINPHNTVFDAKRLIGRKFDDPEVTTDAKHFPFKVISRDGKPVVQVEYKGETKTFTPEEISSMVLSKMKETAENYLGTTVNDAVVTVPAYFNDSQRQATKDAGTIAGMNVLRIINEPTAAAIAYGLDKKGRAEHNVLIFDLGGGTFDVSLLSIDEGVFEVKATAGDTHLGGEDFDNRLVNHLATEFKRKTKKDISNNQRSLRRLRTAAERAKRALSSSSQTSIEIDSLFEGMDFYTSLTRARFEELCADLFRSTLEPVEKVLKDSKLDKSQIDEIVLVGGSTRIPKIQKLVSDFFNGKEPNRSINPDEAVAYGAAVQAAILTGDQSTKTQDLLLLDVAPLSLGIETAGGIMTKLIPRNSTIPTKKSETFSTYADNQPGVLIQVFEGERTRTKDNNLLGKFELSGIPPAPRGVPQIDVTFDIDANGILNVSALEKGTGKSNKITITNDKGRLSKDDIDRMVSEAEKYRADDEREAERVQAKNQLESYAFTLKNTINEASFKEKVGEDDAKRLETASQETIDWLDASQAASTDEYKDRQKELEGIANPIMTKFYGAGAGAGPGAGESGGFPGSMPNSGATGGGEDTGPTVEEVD
UniProt P22202: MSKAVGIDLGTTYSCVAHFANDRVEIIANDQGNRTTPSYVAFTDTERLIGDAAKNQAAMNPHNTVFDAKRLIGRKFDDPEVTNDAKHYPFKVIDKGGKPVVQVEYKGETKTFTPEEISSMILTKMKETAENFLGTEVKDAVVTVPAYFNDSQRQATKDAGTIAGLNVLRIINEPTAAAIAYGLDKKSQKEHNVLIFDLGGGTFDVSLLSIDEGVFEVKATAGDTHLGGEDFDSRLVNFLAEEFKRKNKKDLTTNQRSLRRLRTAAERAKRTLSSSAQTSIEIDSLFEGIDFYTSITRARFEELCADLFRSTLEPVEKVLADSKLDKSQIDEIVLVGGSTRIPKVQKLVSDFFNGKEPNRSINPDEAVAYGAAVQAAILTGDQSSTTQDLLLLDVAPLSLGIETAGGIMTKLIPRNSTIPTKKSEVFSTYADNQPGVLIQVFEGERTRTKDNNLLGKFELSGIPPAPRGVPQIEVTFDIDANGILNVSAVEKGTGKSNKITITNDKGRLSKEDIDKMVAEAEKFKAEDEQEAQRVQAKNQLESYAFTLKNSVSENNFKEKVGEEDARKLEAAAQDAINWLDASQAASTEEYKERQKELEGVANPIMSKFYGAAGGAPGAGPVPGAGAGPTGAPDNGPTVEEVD

How the values were obtained:
[1] = biological target: FLAG-v-Src (Rous sarcoma virus) (UniProt P00524); test: co-IP
[2] = biological target: T1, His6-Sti1, purified (S. cerevisiae) (UniProt P15705); test: pull-down; purified His6-Sti1 incubated with yeast lysate (Ssa1 or Ssa1-T175N as sole cytosolic Hsp70), then with Co2+-NTA resin; blots with antibodies against Hsp70, Hsp90 and His6; only the target purified
T1 sequence: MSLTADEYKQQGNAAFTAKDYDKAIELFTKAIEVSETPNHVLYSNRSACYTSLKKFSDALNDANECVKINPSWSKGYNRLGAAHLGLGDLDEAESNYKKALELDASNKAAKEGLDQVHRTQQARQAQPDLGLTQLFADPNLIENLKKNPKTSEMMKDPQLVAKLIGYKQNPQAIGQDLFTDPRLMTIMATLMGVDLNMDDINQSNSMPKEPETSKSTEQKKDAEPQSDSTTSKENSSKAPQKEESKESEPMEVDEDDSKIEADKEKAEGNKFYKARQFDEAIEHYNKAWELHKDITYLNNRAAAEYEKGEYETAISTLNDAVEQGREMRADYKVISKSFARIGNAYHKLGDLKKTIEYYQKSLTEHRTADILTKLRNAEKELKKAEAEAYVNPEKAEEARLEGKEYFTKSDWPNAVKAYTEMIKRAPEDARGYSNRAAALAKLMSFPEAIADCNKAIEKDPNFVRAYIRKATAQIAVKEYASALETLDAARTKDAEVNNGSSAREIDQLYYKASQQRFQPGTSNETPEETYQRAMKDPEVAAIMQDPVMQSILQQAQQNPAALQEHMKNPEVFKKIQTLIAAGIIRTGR

[3] = biological target: His6-Ydj1 (S. cerevisiae) (UniProt P25491); test: pull-down; purified His6-Ydj1 bound to cobalt affinity resin for 1 h, incubated with clarified yeast lysate for 1 h; eluted with 20 mM EDTA; blots with anti-Hsp70, anti-Hsp90, anti-Ydj1; only the target purified
[4] = biological target: His6-Ydj1 (S. cerevisiae) (UniProt P25491); test: BLI; Ssa1, Ssa2, Ssa3 and Ssa4 with Ydj1; set-up not told here (as in ref. 26)

“Ssa1 (wt), expressed as sole Ssa Hsp70 in strain A1 (from UniProt P10591 1-642)” was tested, and the binding [1] was “binds”, the binding [2] was “binds” and the binding [3] was “binds”.

With “Ssa1-D158N, expressed as sole Ssa Hsp70 in strain A1-D158N (from UniProt P10591 1-642)” the binding [3] was “binds”.

For “Ssa1-T175N, expressed as sole Ssa Hsp70 in strain A1-T175N (from UniProt P10591 1-642)”, the binding [2] was “binds” and the binding [3] was “binds”.

With Ssa3 (from UniProt P09435 1-649) the binding [4] was “binds”.

For Ssa4 (from UniProt P22202 1-642), the binding [4] was “binds weakly”.
